The nature of this series: general procedure: solution-phase peptide synthesis; N-ethoxycarbonyl-2-ethoxy-1,2-dihydroquinoline.

For the substance “N-[4-(11,12-Didehydrodibenzo[b,f]azocin-5 (6H)-yl)-4-oxobutanoyl]glycylglycyl-L-valyl-N-{4-[({[(11a′S)-11′-hydroxy-7′-methoxy-8′-(3-{[(11aS)-7-methoxy-5-oxo-2-(quinoxaline-6-yl)-5,10,11,11a-tetrahydro-1H-pyrrolo[2,1-c][1,4]benzodiazepin-8-yl]oxy}propoxy)-5′-oxo-11′,11a′-dihydro-1′H-spiro[cyclopropane-1,2′-pyrrolo[2,1-c][1,4]benzodiazepine]-10′(5′H)-yl]carbonyl}oxy)methyl]phenyl}-L-alaninamide”, where the note is “coupling step”, the step yield is on record as 71%.
Same read-out and setting: the same measure for “N-[4-(11,12-Didehydrodibenzo[b,f]azocin-5 (6H)-yl)-4-oxobutanoyl]glycylglycyl-L-valyl-N-{4-[({[(11a′S)-11′-hydroxy-7′-methoxy-8′-(3-{[(11aS)-7-methoxy-5-oxo-2-(thiophen-3-yl)-5,10,11,11a-tetrahydro-1H-pyrrolo[2,1-c][1,4]benzodiazepin-8-yl]oxy}propoxy)-5′-oxo-11′,11a′-dihydro-1′H-spiro[cyclopropane-1,2′-pyrrolo[2,1-c][1,4]benzodiazepine]-10′(5′H)-yl]carbonyl}oxy)methyl]phenyl}-L-alaninamide”: 24%.
Same read-out and setting: as for “N-[4-(11,12-Didehydrodibenzo[b,f]azocin-5 (6H)-yl)-4-oxobutanoyl]glycylglycyl-L-valyl-N-{4-[({[(11a′S)-11′-hydroxy-7′-methoxy-8′-(3-{[(11a′S)-7′-methoxy-5′-oxo-5′,11a′-dihydro-1′H-spiro[cyclopropane-1,2′-pyrrolo[2,1-c][1,4]benzodiazepine]-8′-yl]oxy}propoxy)-5′-oxo-11′,11a′-dihydro-1′H-spiro[cyclopropane-1,2′-pyrrolo[2,1-c][1,4]benzodiazepine]-10′(5′H)-yl]carbonyl}oxy)methyl]phenyl}-L-alaninamide”, the figure is 16%; as for “N-[4-(11,12-Didehydrodibenzo[b,f]azocin-5 (6H)-yl)-4-oxobutanoyl]glycylglycyl-L-valyl-N-{4-[({[(11a′S)-11′-hydroxy-7′-methoxy-8′-[3-({(11aS)-7-methoxy-5-oxo-2-[4-(trifluoromethyl)phenyl]-5,10,11,11a-tetrahydro-1H-pyrrolo[2,1-c][1,4]benzodiazepin-8-yl}oxy)propoxy]-5′-oxo-11′,11a′-dihydro-1′H-spiro[cyclopropane-1,2′-pyrrolo[2,1-c][1,4]benzodiazepine]-10′(5′H)-yl]carbonyl}oxy)methyl]phenyl}-L-alaninamide”, 76%.
On the same count and under the same terms, the same measure for “N-[4-(11,12-Didehydrodibenzo[b,f]azocin-5 (6H)-yl)-4-oxobutanoyl]glycylglycyl-L-valyl-N-{4-[({[(11a′S)-11′-hydroxy-7′-methoxy-8′-[(5-{[(5aS)-10-methoxy-12-oxo-5a,12-dihydro-5H-indolo[2,1-c][1,4]benzodiazepin-9-yl]oxy}pentyl)oxy]-5′-oxo-11′,11a′-dihydro-1′H-spiro[cyclopropane-1,2′-pyrrolo[2,1-c][1,4]benzodiazepine]-10′(5′H)-yl]carbonyl}oxy)methyl]phenyl}-L-alaninamide”: 44%.
“N-[4-(11,12-Didehydrodibenzo[b,f]azocin-5 (6H)-yl)-4-oxobutanoyl]glycylglycyl-L-valyl-N-{4-[({[(11a′S)-11′-hydroxy-7′-methoxy-8′-[(5-{[(11a'S)-7′-methoxy-5′-oxo-5′,11a′-dihydro-1′H-spiro[cyclopropane-1,2′-pyrrolo[2,1-c][1,4]benzodiazepine]-8′-yl]oxy}pentyl)oxy]-5′-oxo-11′,11a′-dihydro-1′H-spiro[cyclopropane-1,2′-pyrrolo[2,1-c][1,4]benzodiazepine]-10′(5′H)-yl]carbonyl}oxy)methyl]phenyl}-L-alaninamide” had a step yield (coupling step) of 66%.
Turning to “N-[4-(11,12-Didehydrodibenzo[b,f]azocin-5 (6H)-yl)-4-oxobutanoyl]glycylglycyl-L-valyl-N-{4-[({[(11a′S)-11′-hydroxy-7′-methoxy-8′-[(5-{[(11aS)-7-methoxy-2-methylidene-5-oxo-2,3,5,11a-tetrahydro-1H-pyrrolo[2,1-c][1,4]benzodiazepin-8-yl]oxy}pentyl)oxy]-5′-oxo-11′,11a′-dihydro-1′H-spiro[cyclopropane-1,2′-pyrrolo[2,1-c][1,4]benzodiazepine]-10′(5′H)-yl]carbonyl}oxy)methyl]phenyl}-L-alaninamide”, under “coupling step”, the step yield turned out to be 89%.
As to “N-[4-(11,12-Didehydrodibenzo[b,f]azocin-5 (6H)-yl)-4-oxobutanoyl]glycylglycyl-L-valyl-N-{4-[({[(11a′S)-11′-hydroxy-7′-methoxy-8′-[(5-{[(11a′S)-7′-methoxy-5′-oxo-5′,10′,11′,11a′-tetrahydro-1′H-spiro[cyclopropane-1,2′-pyrrolo[2,1-c][1,4]benzodiazepine]-8′-yl]oxy}pentyl)oxy]-5′-oxo-11′,11a′-dihydro-1′H-spiro[cyclopropane-1,2′-pyrrolo[2,1-c][1,4]benzodiazepine]-10′(5′H)-yl]carbonyl}oxy)methyl]phenyl}-L-alaninamide”, the step yield (coupling step) came to 63%.
For the substance “N-[4-(11,12-Didehydrodibenzo[b,f]azocin-5 (6H)-yl)-4-oxobutanoyl]glycylglycyl-L-valyl-N-{4-[({[(11a′S)-11′-hydroxy-8′-(3-{[(11aS)-2-(4-hydroxyphenyl)-7-methoxy-5-oxo-5,10,11,11a-tetrahydro-1H-pyrrolo[2,1-c][1,4]benzodiazepin-8-yl]oxy}propoxy)-7′-methoxy-5′-oxo-11′,11a′-dihydro-1′H-spiro[cyclopropane-1,2′-pyrrolo[2,1-c][1,4]benzodiazepine]-10′(5′H)-yl]carbonyl}oxy)methyl]phenyl}-L-alaninamide”, the step yield (coupling step) is 50%.
For the substance “N-[4-(11,12-Didehydrodibenzo[b,f]azocin-5 (6H)-yl)-4-oxobutanoyl]glycylglycyl-L-valyl-N-{4-[({[(11a′S)-11′-hydroxy-8′-[3-({(11aS)-2-[4-(hydroxymethyl)phenyl]-7-methoxy-5-oxo-5,10,11,11a-tetrahydro-1H-pyrrolo[2,1-c][1,4]benzodiazepin-8-yl}oxy)propoxy]-7′-methoxy-5′-oxo-11′,11a′-dihydro-1′H-spiro[cyclopropane-1,2′-pyrrolo[2,1-c][1,4]benzodiazepine]-10′(5′H)-yl]carbonyl}oxy)methyl]phenyl}-L-alaninamide”, under “late stage modification step”, the step yield worked out at 85%.
In the case of “N-[4-(11,12-Didehydrodibenzo[b,f]azocin-5 (6H)-yl)-4-oxobutanoyl]glycylglycyl-L-valyl-N-{4-[({[(11a′S)-11′-hydroxy-8′-[(5-{[(11aS)-2-(hydroxymethyl)-7-methoxy-5-oxo-5,11a-dihydro-1H-pyrrolo[2,1-c][1,4]benzodiazepin-8-yl]oxy}pentyl)oxy]-7′-methoxy-5′-oxo-11′,11a′-dihydro-1′H-spiro[cyclopropane-1,2′-pyrrolo[2,1-c][1,4]benzodiazepine]-10′(5′H)-yl]carbonyl}oxy)methyl]phenyl}-L-alaninamide”, the step yield (coupling step) is recorded as 48%.
In turn, “N-[4-(11,12-Didehydrodibenzo[b,f]azocin-5 (6H)-yl)-4-oxobutanoyl]glycylglycyl-L-valyl-N-{6-[({[(11a′S)-11′-hydroxy-7′-methoxy-8′-(3-{[(11aS)-7-methoxy-2-(4-methoxyphenyl)-5-oxo-5,10,11,11a-tetrahydro-1H-pyrrolo[2,1-c][1,4]benzodiazepin-8-yl]oxy}propoxy)-5′-oxo-11′,11a′-dihydro-1′H-spiro[cyclopropane-1,2′-pyrrolo[2,1-c][1,4]benzodiazepine]-10′(5′H)-yl]carbonyl}oxy)methyl]pyridine-3-yl}-L-alaninamide” displayed a step yield (coupling step) of 48%.
Still for that read-out and setting: the same measure for “N-[4-(11,12-Didehydrodibenzo[b,f]azocin-5 (6H)-yl)-4-oxobutanoyl]glycylglycyl-L-valyl-N^5-carbamoyl-N-{4-[({[(11a′S)-11′-hydroxy-7′-methoxy-8′-(3-{[(11aS)-7-methoxy-2-(4-methoxyphenyl)-5-oxo-5,10,11,11a-tetrahydro-1H-pyrrolo[2,1-c][1,4]benzodiazepin-8-yl]oxy}propoxy)-5′-oxo-11′,11a′-dihydro-1′H-spiro[cyclopropane-1,2′-pyrrolo[2,1-c][1,4]benzodiazepine]-10′(5′H)-yl]carbonyl}oxy)methyl]phenyl}-L-ornithinamide”: 14%; for “N-[4-(11,12-Didehydrodibenzo[b,f]azocin-5 (6H)-yl)-4-oxobutanoyl]glycylglycyl-L-valyll-N-{4-[({[(11a′S)-11′-hydroxy-7′-methoxy-8′-(3-{[(11aS)-7-methoxy-5-oxo-2-phenyl-5,10,11,11a-tetrahydro-1H-pyrrolo[2,1-c][1,4]benzodiazepin-8-yl]oxy}propoxy)-5′-oxo-11′,11a′-dihydro-1′H-spiro[cyclopropane-1,2′-pyrrolo[2,1-c][1,4]benzodiazepine]-10′(5′H)-yl]carbonyl}oxo)methyl]phenyl}-L-alaninamide”: 36%; for “N-[4-(11,12-Didehydrodibenzo[b,f]azocin-5(6H)-yl)-4-oxobutanoyl]glycylglycyl-L-valyl-N-[4-({[(11′aS)-11′-hydroxy-7′-methoxy-8′-(3-{[(11aS)-7-methoxy-2-(4-methoxyphenyl)-5-oxo-5,10,11,11a-tetrahydro-1H-pyrrolo[2,1-c][1,4]benzodiazepin-8-yl]oxy}propoxy)-5′-oxo-11′,11′a-dihydro-1′H,3′H-spiro[cyclopropane-1,2′-pyrrolo[2,1-c][1,4]benzodiazepine]-10′(5′H)-carbonyl]oxy}methyl)phenyl]-L-alaninamide”: 64%.
The substance “N-[(11,12-Didehydro-5,6-dihydrodibenzo[a,e][8]annulen-5-yloxy)carbonyl]glycylglycyl-L-valyl-N-{4-[({[(11a′S)-11′-hydroxy-7′-methoxy-8′-(3-{[(11aS)-7-methoxy-2-(4-methoxyphenyl)-5-oxo-5,10,11,11a-tetrahydro-1H-pyrrolo[2,1-c][1,4]benzodiazepin-8-yl]oxy}propoxy)-5′-oxo-11′,11a′-dihydro-1′H-spiro[cyclopropane-1,2′-pyrrolo[2,1-c][1,4]benzodiazepine]-10′(5′H)-yl]carbonyl}oxy)methyl]phenyl}-L-alaninamide” came in with a step yield (coupling step) of 87%.

The values are drawn from US12350344 (dated 2025).
